# Measurements reported in the supplement of paper PMC4749390.
# Where a name gives a salt, the structure may show the parent alone. The list shows a part of the results. Single values are uncertain here, since repeats match poorly.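 Wild-type human LRH-1, a heavily sumoylated nuclear receptor, is tetracycline-inducible in stable JEG3 cells. RT-qPCR measured SUMO-sensitive APOC3 and MUC1 transcripts, which rise with SUMO-less LRH-1 or UBC9 knockdown, versus TBP and DMSO controls. Robust Z-scores beyond ±2 flagged primary hits, followed by toxicity and TBP filtering.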
# Test system: JEG3 expressing hLRH-1
# Assay: APOC3 transcript change (ddCt vs TBP and DMSO), Z-score over library; higher = higher APOC3 expression
# Conditions: 10 µM; time (hr): 24
row,SMILES,APOC3 transcript change (Z-score)
1,CC[C@H](C)C(=O)O[C@H]1CCC=C2C=C[C@H](C)C(CCC3C[C@@H](O)CC(=O)O3)[C@H]21 (some centres undefined) [compactin],0.627
2,CC(=O)N[C@@H]1[C@@H](C(O)[C@H](O)CO)O[C@](O)(C(=O)O)C[C@@H]1O (some centres undefined) [n-acetylneuramic acid],0.305
3,Nc1nc(O)c2c(n1)NCC(CNc1ccc(C(=O)N[C@@H](CCC(=O)O)C(=O)O)cc1)N2C=O (some centres undefined) [leucovorin calcium],-2.05
4,C[C@]12C=CC(=O)N[C@@H]1CC[C@@H]1[C@@H]2CC[C@]2(C)[C@@H](C(=O)Nc3cc(C(F)(F)F)ccc3C(F)(F)F)CC[C@@H]12 [dutasteride],0.0267
5,CO[C@H]1/C=C/O[C@@]2(C)Oc3c(C)c(O)c4c(O)c(c5c(nc6cc(C)ccn65)c4c3C2=O)NC(=O)/C(C)=C\C=C\[C@H](C)[C@H](O)[C@@H](C)[C@@H](O)[C@@H](C)[C@H](OC(C)=O)[C@@H]1C [rifaximin],-0.0337
6,C=CCc1ccccc1OCC(O)CNC(C)C (centres undefined) [Alprenolol hydrochloride],0.126
7,C(=C\N1CCN(C(c2ccccc2)c2ccccc2)CC1)/Cc1ccccc1 [cinnarazine],0.229
8,Cc1cc(O)c(C(=O)N[C@@H](C(=O)N[C@@H]2C(=O)N3C(C(=O)O)=C(CSc4nnnn4C)CS[C@H]23)c2ccc(O)cc2)cn1 [cefpiramide],0.653
9,CCCNC(=O)NS(=O)(=O)c1ccc(Cl)cc1 [Chlorpropamide],-0.507
10,CNCCc1ccccn1 [betahistine hydrochloride],-0.431
11,Cc1ccnc2c1NC(=O)c1cccnc1N2C1CC1 [nevirapine],-0.49
12,NCCCCCC(=O)O [aminocaproic acid],-0.23
13,CO/N=C(/C(=O)N[C@@H]1C(=O)N2C(C(=O)OCSC(=O)c3ccco3)=CCS[C@H]12)c1csc(N)n1 [ceftiofur hydrochloride],-0.776
14,N#C[C@@H]1C[C@@H]2C[C@@H]2N1C(=O)[C@@H](N)[C@]12CC3CC(C[C@@](O)(C3)C1)C2 [saxagliptin],0.399
15,CCN(CC)C(=O)c1ccc(O)c(OC)c1 [ethamivan],0.209
16,CCC(C)n1ncn(-c2ccc(N3CCN(c4ccc(OC[C@H]5CO[C@](Cn6cncn6)(c6ccc(Cl)cc6Cl)O5)cc4)CC3)cc2)c1=O (some centres undefined) [itraconazole],0.442
17,CC(=O)[C@@]1(O)CC[C@H]2[C@@H]3CCC4=CC(=O)CC[C@]4(C)[C@H]3CC[C@@]21C [hydroxyprogesterone],0.264
18,CCOC(=O)[C@H](CCc1ccccc1)N[C@@H](C)C(=O)N1Cc2ccccc2C[C@H]1C(=O)O [quinapril hydrochloride],-1.5
19,CCC1NC(=O)c2cc(S(N)(=O)=O)c(Cl)cc2N1 (centres undefined) [quinethazone],-0.458
20,O=C1NCC2(CCN(CCc3ccccc3)CC2)O1 [fenspiride hydrochloride],-0.241
21,CNCCCC12CCC(c3ccccc31)c1ccccc12 [maprotiline hydrochloride],0.0251
22,CCCOc1ccc2[nH]c(NC(=O)OC)nc2c1 [oxybendazole],-2.13

# 9 of the compounds above, with tabs:
row	SMILES	APOC3 transcript change (Z-score)
2	CC(=O)N[C@@H]1[C@@H](C(O)[C@H](O)CO)O[C@](O)(C(=O)O)C[C@@H]1O (some centres undefined) [n-acetylneuramic acid]	0.305
3	Nc1nc(O)c2c(n1)NCC(CNc1ccc(C(=O)N[C@@H](CCC(=O)O)C(=O)O)cc1)N2C=O (some centres undefined) [leucovorin calcium]	-2.05
4	C[C@]12C=CC(=O)N[C@@H]1CC[C@@H]1[C@@H]2CC[C@]2(C)[C@@H](C(=O)Nc3cc(C(F)(F)F)ccc3C(F)(F)F)CC[C@@H]12 [dutasteride]	0.0267
5	CO[C@H]1/C=C/O[C@@]2(C)Oc3c(C)c(O)c4c(O)c(c5c(nc6cc(C)ccn65)c4c3C2=O)NC(=O)/C(C)=C\C=C\[C@H](C)[C@H](O)[C@@H](C)[C@@H](O)[C@@H](C)[C@H](OC(C)=O)[C@@H]1C [rifaximin]	-0.0337
6	C=CCc1ccccc1OCC(O)CNC(C)C (centres undefined) [Alprenolol hydrochloride]	0.126
7	C(=C\N1CCN(C(c2ccccc2)c2ccccc2)CC1)/Cc1ccccc1 [cinnarazine]	0.229
8	Cc1cc(O)c(C(=O)N[C@@H](C(=O)N[C@@H]2C(=O)N3C(C(=O)O)=C(CSc4nnnn4C)CS[C@H]23)c2ccc(O)cc2)cn1 [cefpiramide]	0.653
9	CCCNC(=O)NS(=O)(=O)c1ccc(Cl)cc1 [Chlorpropamide]	-0.507
10	CNCCc1ccccn1 [betahistine hydrochloride]	-0.431

# Next part.

row,SMILES,APOC3 transcript change (Z-score)
1,Cc1cc2nc3c(=O)[nH]c(=O)nc-3n(C[C@H](O)[C@H](O)[C@H](O)CO)c2cc1C [riboflavin],-0.601
2,O=C(O)Cc1cc(I)c(Oc2ccc(O)c(I)c2)c(I)c1 [tiratricol],0.0146
3,Cc1cc(-c2ccccc2)nnc1NCCN1CCOCC1 [minaprine hydrochloride],0.4
4,O=C(OOC(=O)c1ccccc1)c1ccccc1 [benzoyl peroxide],0.208
5,COC(=O)[C@H]1[C@H]2C[C@@H]3c4[nH]c5cc(OC)ccc5c4CCN3C[C@H]2C[C@@H](OC(=O)c2cc(OC)c(OC)c(OC)c2)[C@@H]1OC [reserpine],0.00039
6,CCCCC(CC)COC(=O)CC(C(=O)OCC(CC)CCCC)S(=O)(=O)O (centres undefined) [docusate sodium],-2.95
7,C[C@@](Cc1ccc(O)c(O)c1)(NN)C(=O)O [S-(-)-Carbidopa],-0.378
8,CC[C@H](C)[C@H](N)C(=O)O [isoleucine (l)],-0.14
9,CC[C@H]1OC(=O)[C@H](C)[C@@H](O[C@H]2C[C@@](C)(OC)[C@@H](O)[C@H](C)O2)[C@H](C)[C@@H](O[C@@H]2O[C@H](C)C[C@H](N(C)C)[C@H]2O)[C@](C)(O)C[C@@H](C)/C(=N\OCOCCOC)[C@H](C)[C@@H](O)[C@]1(C)O [roxithromycin],0.464
10,Oc1c(Cl)cc(Cl)c2cccnc12 [chloroxine],-0.2
11,C/C(=C(/CCOP(=O)(O)O)SC(=O)c1ccccc1)N(C=O)Cc1cnc(C)nc1N (stereo in doubt) [benfotiamine],0.84
12,O=C(O)CCNC(=O)c1ccccc1 [betamipron],-1.01
13,CC(C)OC(=O)C(C)(C)Oc1ccc(C(=O)c2ccc(Cl)cc2)cc1 [fenofibrate],0.686
14,OCC(O)[C@@H](O)CO (some centres undefined) [erythritol],0.598
15,CCOc1ccccc1OCCNC(C)Cc1ccc(OC)c(S(N)(=O)=O)c1 (centres undefined) [tamsulosin hydrchloride],0.394
16,"CCC(=O)OCC(=O)[C@@]1(OC(=O)CC)[C@@H](C)CC2C3CCC4=CC(=O)C=C[C@]4(C)C3(F)[C@@H](O)C[C@@]21C (some centres undefined) [betamethasone 17,21-dipropionate]",0.386
17,C=C1c2cccc(O)c2C(O)=C2C(=O)[C@]3(O)C(O)=C(C(N)=O)C(=O)[C@@H](N(C)C)[C@@H]3[C@@H](O)[C@H]12 [methacycline hydrochloride],0.852
18,Nc1ccc(S(=O)(=O)Nc2ccccn2)cc1 [sulfapyridine],-1.42
19,CC(C(=O)O)c1cccc(C(=O)c2ccccc2)c1 (centres undefined) [ketoprofen],-1.29
20,CCn1cc(C(=O)O)c(=O)c2cc(F)c(N3CCNC(C)C3)c(F)c21 (centres undefined) [lomefloxacin hydrochloride],-0.0954
21,CC1=NS(=O)(=O)c2cc(Cl)ccc2N1 [Diazoxide],-0.266
22,Cn1nnnc1SCC1=C(C(=O)O)N2C(=O)C(NC(=O)C(O)c3ccccc3)C2SC1 (centres undefined) [cefamandole sodium],0.425
